# PubChem BioAssay AID1487 (National Center for Advancing Translational Sciences (NCATS), 2009)
# Values joined by “and” are separate entries in the source; they are usually repeats but may differ in a detail not shown here. Equal entries are not always repeated. The list shows a part of the results. Shown are side measurements of this screen, not its main read-out; they come without a call. The list favours compounds with an active or inconclusive main result. Potencies come from curve fits of mixed quality, noted in brackets.
# Assay: qHTS Assay for Modulators of Lamin A Splicing
# Conditions: HeLa LMNA splicing GFP/RFP minigene ratio, 48 h
# How it was run: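 S3 HeLa stable clones carrying a lamin A-EGFP splicing minigene plus DsRed2 were seeded at 600 cells/well in Opti-MEM with 2% FBS, pin-dosed and incubated 48 h at 37°C. Acumen cytometry (488 nm) gave the GFP/RFP total-intensity ratio.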
# [1] = measured here: RFP viability control channel
# [2] = measured here: GFP splicing reporter channel
SMILES,AC50 [1],AC50 [2]
Cc1cc(O)c(C(c2cccc(F)c2)N2CCC(C)CC2)c(=O)n1Cc1ccco1 (stereo not given),"22.4 µM [rising, single point]",
CN(c1cccc(NC(=O)COc2ccc(Cl)cc2Cl)c1)S(C)(=O)=O,"35.5 µM [rising, single point]",
C[C@]1(C(=O)NCCc2c[nH]c3ccccc23)C=C[C@@H](Cc2ccccc2)N1C(=O)c1ccccc1,"4.47 µM [rising, partial curve, poor fit]","1.26 µM [rising, full curve, poor fit]"
Brc1ccc2c(c1)C(C1=NCCN1)c1ccccc1CS2 (stereo not given),"2.82 µM [rising, full curve]",
Oc1ccccc1C=Nc1ccccc1-c1nc2ccccc2[nH]1,"7.94 µM [rising, partial curve]",
O=C(CSc1nc2c(c(=O)[nH]1)CN(Cc1ccc(F)cc1)CC2)Nc1ccc(F)cc1,"7.08 µM [rising, partial curve]",
C=CCSc1nnc2nc3c(nn12)c1cc(C)ccc1n3CC=C,"25.1 µM [rising, single point]",
CC(C)(C)CC(=O)NCc1cccs1,,"0.447 µM [falling, partial curve]"
COc1ccc(C(=O)NCC(c2cccnc2)N2CCN(c3ccc(F)cc3)CC2)cc1 (stereo not given),"35.5 µM [falling, partial curve]","35.5 µM [falling, single point]"
Cc1cc(C)cc(N2C(=O)c3nccnc3C2=O)c1,"35.5 µM [falling, single point]",
COc1cccc(OCc2nnc(-c3cccs3)o2)c1,,"35.5 µM [rising, single point]"
CCCCOc1cccc(C(=O)N(Cc2ccco2)C2CCS(=O)(=O)C2)c1 (stereo not given),,"0.112 µM [falling, single point]"
Cc1ccccc1NC(=S)N(CCCN1CCCCC1)Cc1ccco1,"0.178 µM [rising, full curve, poor fit]",
Cc1ccc(-n2c(SCc3ccccc3F)nc3[nH]ncc3c2=O)cc1C,,"2.82 µM [rising, partial curve]"
CCN(CC)S(=O)(=O)c1ccc(N2CCCCC2)c(C(=O)Nc2ccccc2N2CCOCC2)c1,"7.08 µM [rising, partial curve]",
CCOC(=O)C1=C(C)N(CC(C)C)C(=O)C1,,"20 µM [rising, single point]"
O=C1CC(c2ccc(Cl)cc2)SC(N(c2ccccc2)c2ccccc2)=N1 (stereo not given),"6.31 µM [rising, single point]",
COC(=O)CN1C(=S)N(Cc2ccccc2)C(=O)C1CC(=O)Nc1ccc(OC)cc1 (stereo not given),"22.4 µM [rising, partial curve, poor fit]",
CC1NC(=O)NC1CCCCCC(=O)Nc1ccc(F)cc1 (stereo not given),"3.55 µM [falling, partial curve, poor fit]","0.00398 µM [falling, full curve, poor fit]"

SMILES,AC50 [1],AC50 [2]
C=CCc1ccccc1OCC(O)CN1CCN(c2ccc(OC)cc2)CC1 (stereo not given),"11.2 µM [rising, single point]",
COC(=O)CN1C(=O)CC(C)(C)Sc2ccccc21,"35.5 µM [falling, partial curve, poor fit]",
O=C1CCCN1c1ccc(S(=O)(=O)NCCOc2ccccc2)cc1,"14.1 µM [rising, partial curve]",
O=C(COC(=O)c1cc(Cl)nc2ccccc12)c1ccc(Cl)cc1,,"0.0501 µM [falling, full curve, poor fit]"
CCCC1S/C(=N/N=C/c2ccc(OC)cc2)N(Cc2ccccc2)C1=O (stereo not given),"15.8 µM [rising, partial curve]",
COC(=O)c1c(NC(=O)c2ccc(S(=O)(=O)N3CCCCC3)cc2)sc2c1CCN(C)C2,"35.5 µM [falling, single point]","25.1 µM [rising, partial curve, poor fit]"
Cc1cccc(-c2nc3sc(C)cc3c(=O)o2)c1,,"0.02 µM [rising, full curve, poor fit]"
O=C(Nc1nccs1)c1cc(N2CCOCC2)nc2ccccc12,"2.51 µM [rising, partial curve, poor fit]",
O=C(NC12CC3CC(CC(C3)C1)C2)c1ccc(-c2ccccc2Cl)o1,"20 µM [falling, partial curve]",
CCc1c(C)[nH]c2c1C(=O)[C@H](CN1CCOCC1)CC2,"1.26 µM [falling, full curve]","1 µM [falling, full curve]"
N#CCCn1cc(C(=O)Nc2ccc([N+](=O)[O-])cc2)c(-c2cc3ccccc3o2)n1,"20 µM [falling, partial curve]","10 µM [falling, partial curve]"
O=C(N/N=C/c1c[nH]c2ccccc12)c1cc(-c2cccc3ccccc23)n[nH]1,"11.2 µM [rising, partial curve, poor fit]",
CC(CCc1ccccc1)NC(=O)c1nnc(Cc2ccc(Cl)cc2)o1 (stereo not given),"35.5 µM [rising, single point]",
COCCn1c(-c2ccccc2)cnc1N,"35.5 µM [falling, single point]",
COc1cccc(C(=O)C2CCCN(C/C=C/c3ccccc3OC)C2)c1 (stereo not given),"14.1 µM [falling, partial curve, poor fit]","15.8 µM [falling, single point]"
CC(C)=CCc1c(O)ccc(C(=O)Cc2ccccc2)c1O,"17.8 µM [rising, single point]","14.1 µM [rising, single point]"
Cc1ccc(NC(=O)N(Cc2ccc3c(c2)OCO3)Cc2cc3cc4c(cc3[nH]c2=O)OCCO4)cc1,"0.00891 µM [rising, full curve, poor fit]",
CCCc1cc(=O)oc2cc(C)cc(OC(=O)c3ccco3)c12,"15.8 µM [rising, single point]","10 µM [rising, partial curve]"
Fc1ccc(-n2ncc3c(Nc4ccc(Oc5ccc(Cl)cc5)cc4)ncnc32)cc1,"35.5 µM [falling, single point]","35.5 µM [falling, single point]"

SMILES,AC50 [1],AC50 [2]
Cc1ccc(-n2ncc3c(NCCc4ccccc4)ncnc32)cc1,"0.01 µM [falling, full curve, poor fit]","0.01 µM [falling, full curve, poor fit]"
CCN1/C(=C/c2cc[n+](CCCS(=O)(=O)[O-])c3ccccc23)Sc2ccccc21,"0.0631 µM [falling, full curve, poor fit]","0.0501 µM [falling, full curve]"
N=c1ccn2c(n1)O[C@@H]1[C@@H](O)[C@H](CO)O[C@H]12,"0.0501 µM [rising, full curve, poor fit]","0.00794 µM [falling, full curve, poor fit]"
FC(F)(F)c1cccc(N2CCN(C(=S)NC3CCCC3)CC2)c1,"15.8 µM [rising, partial curve]","12.6 µM [rising, single point]"
CN1C(=O)CSc2ccc(NC(=O)Nc3ccccn3)cc21,"12.6 µM [falling, partial curve]",
Cc1ccc[n+](Cc2ccc([N+](=O)[O-])cc2)c1,"0.02 µM [falling, full curve]",
Cc1[nH]c(C)c(Cl)c(=O)c1Cl,,"0.00251 µM [falling, full curve, poor fit]"
Cc1ccc(OCc2nnc(N)s2)cc1,,"35.5 µM [falling, single point]"
O=C(NNc1ccccc1[N+](=O)[O-])Nc1ccc(Cl)c(Cl)c1,"20 µM [rising, partial curve]","4.47 µM [rising, partial curve, poor fit]"
CCOC(=O)[C@H]1NN=C(C(=O)OC)[C@@H]1c1ccccc1,,"3.16 µM [falling, partial curve, poor fit]"
COC(=O)c1sccc1N/N=C/c1cccc(Oc2ccccc2)c1,"35.5 µM [rising, single point]",
COc1cc(NC(=O)CCCSc2nc(-c3ccco3)cc(C(F)(F)F)n2)cc(OC)c1OC,"17.8 µM [rising, partial curve]",
OC(COc1ccc2c(c1)CCC2)CN1CCN(c2ccccc2F)CC1 (stereo not given),"17.8 µM [rising, partial curve, poor fit]",
CN1c2ccccc2-c2nc3ccccc3n2C1c1ccco1 (stereo not given),"11.2 µM [rising, partial curve]","10 µM [rising, partial curve]"
CCN(c1ccccc1)S(=O)(=O)c1cc(C(=O)Nc2ccc(Br)cc2)ccc1F,"7.08 µM [rising, partial curve]","11.2 µM [rising, partial curve] and 2.24 µM [falling, partial curve]"
CCN(CC)C(=O)Cn1c(SCC(=O)Nc2ccc(C)c(C)c2)nc2ccccc21,,"0.178 µM [rising, full curve, poor fit]"
CCCn1c2ccccc2c2cnn(CC(=O)N(CCCOC(C)C)Cc3ccco3)c(=O)c21,"20 µM [falling, single point]","12.6 µM [falling, partial curve]"
CCOC(=O)C1=C(Cc2ccc(Cl)cc2)C(=O)c2ccccc2C1=O,"12.6 µM [rising, single point]","10 µM [rising, partial curve, poor fit]"

# Among those listed so far, these have bromine:
SMILES,AC50 [1],AC50 [2]
Brc1ccc2c(c1)C(C1=NCCN1)c1ccccc1CS2 (stereo not given),"2.82 µM [rising, full curve]",
CCN(c1ccccc1)S(=O)(=O)c1cc(C(=O)Nc2ccc(Br)cc2)ccc1F,"7.08 µM [rising, partial curve]","11.2 µM [rising, partial curve] and 2.24 µM [falling, partial curve]"
